Measured values taken from publication PMC4623681.

Key:
ZmNF-YB2a (maize) [1] = target: T1, ZmNF-YB2a (maize) (UniProt P25209); assay: two-hybrid; library screen in yeast; bait against wheat cDNA libraries WGL, WENDL, WHSL, WGD and WRDL (cv. RAC875 tissues under drought and heat); first bait ZmNF-YB2a in pGBKT7, second bait TaNF-YC15 from Ala97
T1 sequence: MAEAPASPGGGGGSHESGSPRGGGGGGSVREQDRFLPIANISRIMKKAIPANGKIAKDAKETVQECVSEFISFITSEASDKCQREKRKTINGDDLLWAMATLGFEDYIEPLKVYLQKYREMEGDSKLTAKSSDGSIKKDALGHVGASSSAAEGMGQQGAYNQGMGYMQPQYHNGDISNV

ZmNF-YB2a (maize) [2] = target: T1, ZmNF-YB2a (maize); assay: two-hybrid; pairwise tests in yeast with re-cloned coding regions (untranslated regions removed); NF-YB coding regions in the bait vector (reciprocal direction); set of N-terminal and C-terminal truncations of TaNF-YB2

TaNF-YC15 (wheat (Triticum aestivum L. cv. RAC875))
binding (ZmNF-YB2a (maize) [1]): binds | binding (ZmNF-YB2a (maize) [2]): binds

These are yes or no findings as the source states them, for the method shown. Binding can be weak; no strength is given.
